# Experimental data as given in PubChem BioAssay AID1347075 (National Center for Advancing Translational Sciences (NCATS), 2019).
# Screen size: about 400,000 compounds; about 5,500 (1.4%) were called active. Inconclusive results, whose numbers are uncertain, are shown with a selection of clear calls. Calls come from the whole dose curve; as a rule, active = well fitted cell-killing curve with a large enough effect; inconclusive = small, poorly fitted or top-dose-only effect, or effect the other way; inactive = flat fitted curve, though single readings scatter. Where the call is inconclusive, the potency comes from a doubtful curve fit.
# Assay: qHTS assay for MDR1-selective chemotherapeutics: Primary screen using the parental adenocarcinoma cell KB-3-1; note: nearly all actives have a fitted effect of over 60% in size
# Conditions: KB-3-1 viability, CellTiter-Glo ATP luminescence, 72 h; activity change, negative = cytotoxic: at 46.1 µM (top of the series)
# Procedure, shortened: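 Using CellTiter-Glo luminescence, growth of non-resistant KB-3-1 adenocarcinoma cells is assessed 72 h after pin-tool compound addition at 37 °C. Normalized responses across the concentration series yield fitted curves.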
# % is set by controls: 0 for no effect and ±100 for the full control effect; potency is the fitted concentration of half-maximal effect.
Structure (SMILES),Potency,"activity change, negative = cytotoxic"
COc1ccc(C(C(=O)NC2CCCC2)N(C(=O)c2ccco2)c2ccccc2OC)cc1 (centres undefined),"inconclusive: 0.0146 µM [rising, full curve]",–
Cc1ccc2c(c1)c1c3n2CCCN(Cc2ccccc2)C3CCC1 (centres undefined),"inconclusive: 18.4 µM [cytotoxic, single point]",–
COC(=O)[C@]12CCCCC=C1N(Cc1ccc(Cl)cc1Cl)C(=O)[C@H](CC(=O)NCCCCc1ccccc1)C2,"inconclusive: 29.1 µM [cytotoxic, single point]",–
COc1ccc(/C=C/C(=O)Nc2ccc(OC)nc2)cc1,"inconclusive: 8.2 µM [cytotoxic, partial curve, poor fit]",–
Cc1noc2ncnc(N3CCN(c4ccccc4F)CC3)c12,inactive,–
Cn1cc([N+](=O)[O-])c(C(=O)Nc2ccc(C3CCCCC3)cc2)n1,"inconclusive: 20.6 µM [cytotoxic, single point]",–
COc1cc(/C=C(\C#N)C(=O)Nc2cccc3ncccc23)cc(OC)c1OC,"inconclusive: 20.6 µM [cytotoxic, single point]",–
CCSc1ncc(Cl)c(C(=O)Nc2ccc(S(=O)(=O)Nc3nccc(C)n3)cc2)n1,inactive,–
Cc1ccc(-c2nnc(NCc3nc4ccccc4[nH]3)c3ccccc23)cc1S(=O)(=O)N1CCOCC1,inactive,–
CCc1ccc2[nH]c(=O)c(CN(Cc3ccco3)Cc3nnnn3Cc3ccco3)cc2c1,"inconclusive: 1.84 µM [cytotoxic, full curve]",–
O=C1CC2(CCN(C(=O)c3ccc(Cl)cc3)CC2)Oc2ccccc21,inactive,–
CC(=O)Nc1cccc(NC(=O)CCNC(=O)c2ccc(Cl)cc2)c1,inactive,–
CN1/C(=C\C(=S)NC(=O)c2ccccc2Cl)C(C)(C)c2ccccc21,"inconclusive: 23.1 µM [cytotoxic, single point]",–
CCN1C(=O)c2ccccc2S(=O)(=O)c2ccc(C(=O)NCCCN(CC(C)C)CC(C)C)cc21,inactive,–
COC(=O)CC1Oc2ccc(C)cc2-n2cc(-c3ccc(F)cc3)nc21 (centres undefined),inactive,–
COC(=O)c1cc(OCC(=O)NC2CCCc3ccccc32)cc(C(=O)OC)c1 (centres undefined),inactive,–
Cc1ccc(C)c(NC(=O)CSc2ncc3c(n2)-c2cc(Cl)ccc2N(Cc2ccccc2F)S3(=O)=O)c1,inactive,–
CCCSCCCNC(=O)c1cc2n(n1)CCCN(Cc1ccc(C)cc1)C2=O,"inconclusive: 23.1 µM [cytotoxic, single point]",–
COc1cc2c(NC3CCN(C)CC3)nc(N3CCCN(C)CC3)nc2cc1OCCCN1CCCC1,"inconclusive: 20.6 µM [cytotoxic, single point]",–
COc1ccc(S(=O)(=O)N2CCOCC2)cc1,"inconclusive: 13 µM [rising, partial curve, poor fit]",–
O=C(Nc1ccnn1C1CCN(CCCc2ccccc2)CC1)c1cccc(F)c1,inactive,–
COc1ccc(-c2oc3ncn4nc(-c5ccccc5Cl)nc4c3c2-c2ccc(OC)cc2)cc1,inactive,–
COc1ccc(Cn2ccc3nc(C)c(C(=O)NCc4ccc(C)cc4)cc3c2=O)cc1,active: 5.17 µM,–

# 3 entries out of the list, sorted by count of non-hydrogen atoms, descending.
Structure (SMILES),Potency,"activity change, negative = cytotoxic"
COC(=O)[C@]12CCCCC=C1N(Cc1ccc(Cl)cc1Cl)C(=O)[C@H](CC(=O)NCCCCc1ccccc1)C2,"inconclusive: 29.1 µM [cytotoxic, single point]",–
COC(=O)CC1Oc2ccc(C)cc2-n2cc(-c3ccc(F)cc3)nc21 (centres undefined),inactive,–
Cc1noc2ncnc(N3CCN(c4ccccc4F)CC3)c12,inactive,–

# Going on with the list.

Structure (SMILES),Potency,"activity change, negative = cytotoxic"
CC(CNC1CCCCC1)OC(=O)c1ccccc1 (centres undefined),inactive,–
CC1CCN(c2nc3c(c(=O)n(C)c(=O)n3C)n2CCSc2nc3ccccc3s2)CC1,"inconclusive: 29.1 µM [cytotoxic, single point]",–
O=C1Nc2ccccc2-n2nnnc2C1N1CCN(c2ccc(C(F)(F)F)cn2)CC1 (centres undefined),"inconclusive: 18.4 µM [cytotoxic, single point]",–
CCOc1ccc(-c2cc(C(=O)NCCc3ccccc3)c3c(-c4ccc(C)cc4)[nH]nc3n2)cc1,"inconclusive: 29.1 µM [cytotoxic, single point]",–
Cc1cc(-c2ccc(C)c(S(=O)(=O)N3c4ccccc4CC3C)c2)on1 (centres undefined),active: 14.6 µM,–
CCN1CCN(CCNC(=O)c2ccc(/C=C3/Sc4ccccc4N(Cc4ccccc4C)C3=O)cc2)CC1,"inconclusive: 29.1 µM [cytotoxic, single point]",–
CCn1nc(C(=O)Nc2ccccc2N2CCCC2)c2ccccc2c1=O,"inconclusive: 23.1 µM [cytotoxic, single point]",–
Cc1ccc(C2C(C#N)=C(N)N(c3cccnc3)C3=C2C(=O)CCC3)s1 (centres undefined),"inconclusive: 29.1 µM [cytotoxic, single point]",–
CCCN(CCC)S(=O)(=O)c1ccc(C(=O)Nc2nc3c(s2)CCc2ccccc2-3)cc1,active: 9.2 µM,–
CCOC(OCC)c1ccc(/C=C\c2nccc(N)n2)cc1,"inconclusive: 20.6 µM [cytotoxic, single point]",–
Cc1cc(N2CCC(C(=O)Nc3ccc(Cl)cc3)CC2)n2nc(C)c(-c3ccc(Cl)cc3)c2n1,inactive,–
Cc1ccc(NC(=O)c2nc[nH]c2C(=O)NCCCCCCNC(=O)c2[nH]cnc2C(=O)Nc2ccc(C)cc2)cc1,"inconclusive: 23.1 µM [cytotoxic, single point]",–
O=C(N/N=C/c1cc([N+](=O)[O-])ccc1O)c1ccc(COc2ccc3c(c2)CCC3)o1,"inconclusive: 18.4 µM [cytotoxic, single point]",–
O=C(Nc1cc(S(=O)(=O)N2CCCCC2)ccc1Cl)c1ccccc1NS(=O)(=O)c1ccc(F)cc1,active: 4.61 µM,–
O=C(CCn1c2c(c3ccccc31)CCCC2)NNC(=O)c1ccccc1C(=O)O,–,inconclusive: 1.67%
Cc1c(Cc2ccccc2)c(=O)oc2c(C)c(OCC(=O)NCC3CCC(C(=O)O)CC3)ccc12 (centres undefined),inactive,–
O=C(N/N=C\c1cc(Br)cs1)C1COc2ccccc2O1 (centres undefined),"inconclusive: 29.1 µM [cytotoxic, single point]",–
COc1ccc(CCC(=O)NCc2ccccc2OC)cc1,inactive,–
Cc1cccc2cc(C#N)c(NCCCNS(=O)(=O)c3ccc(Cl)cc3)nc12,"inconclusive: 20.6 µM [cytotoxic, partial curve, poor fit]",–
CC(=O)O[C@@]1(C)C[C@@H](O)[C@]2(O)C=CO[C@@H](O[C@@H]3O[C@H](CO)[C@@H](O)[C@H](O)[C@H]3O)[C@@H]21,inactive,–
O=[N+]([O-])c1ccc(Cl)c(C2Nc3cccc4cccc(c34)N2)c1,active: 10.3 µM,–
c1ccc2sc(N3CCN(Cc4nnnn4CC4CCCO4)CC3)nc2c1 (centres undefined),"inconclusive: 23.1 µM [cytotoxic, partial curve, poor fit]",–
COc1ccc(CCNC(=O)C2CC3Cn4c(nc5ccccc54)C3N2Cc2ccccc2)cc1 (centres undefined),inactive,–

Structure (SMILES),Potency,"activity change, negative = cytotoxic"
Cc1ccc(Cc2c(C)nc3c(-c4ccccc4)c(C)[nH]n3c2=O)cc1,"inconclusive: 7.31 µM [cytotoxic, partial curve]",–
Cc1ccoc1C(=O)Nc1ccc(CC(=O)O)cc1,"inconclusive: 20.6 µM [cytotoxic, partial curve, poor fit]",–
COc1ccccc1C(c1nnnn1CC1CCCO1)N1CCN(c2ccccc2)CC1 (centres undefined),"inconclusive: 0.0082 µM [rising, full curve, poor fit]",–
Cc1ccc(NC(=S)c2nc3ccccc3[nH]2)c(C)c1,active: 20.6 µM,–
O=C(Nc1ncc(Cc2ccccc2Cl)s1)C1=NCCN1,"inconclusive: 29.1 µM [cytotoxic, single point]",–
COc1ccc(Cl)cc1NC(=O)Cn1c(=O)oc2ccccc21,inactive,–
CCCCCOc1ccc(C(=O)NCC(=O)NCC(=O)OCC)cc1,"inconclusive: 23.1 µM [cytotoxic, single point]",–
FC(F)(F)c1cccc(-c2cc(C3CCNCC3)[nH]n2)c1,inactive,–
O=C(NCC(c1cccs1)N1CCc2ccccc21)c1ccccc1 (centres undefined),"inconclusive: 20.6 µM [cytotoxic, single point]",–
CC1CC(C)CN(CCCNC(=O)c2ccc3c(c2)NC(=O)C(N2CCCCC2)S3)C1 (centres undefined),"inconclusive: 32.6 µM [cytotoxic, single point]",–
O=C(Nc1cc(C(F)(F)F)ccc1F)C1Cc2c(-c3ccccc3Oc3ccccc3)ccnc2O1 (centres undefined),"inconclusive: 29.1 µM [cytotoxic, single point]",–
COc1ccc(C(=O)c2c(C)oc3ccc(O)c(CN4CCOCC4)c23)cc1,"inconclusive: 29.1 µM [cytotoxic, single point]",–
CCOC(=O)c1ccc(NC(=O)c2ccc(C)c(S(=O)(=O)N3CCOCC3)c2)cc1,"inconclusive: 29.1 µM [cytotoxic, single point]",–
CC1CCN(C(=O)C2CCN(C(=O)c3cc4sccc4n3Cc3ccc(F)cc3)CC2)CC1,inactive,–
COc1ccc(OC)c(NC(=S)N(CCc2c(C)[nH]c3ccccc23)Cc2cccs2)c1,"inconclusive: 29.1 µM [cytotoxic, partial curve, poor fit]",–
CCN1/C(=C/c2ccc3cc(C)ccc3[n+]2CC)Sc2cc(C)ccc21,"inconclusive: 0.517 µM [cytotoxic, full curve, poor fit]",–
Nc1cc(=O)[nH]c(SCC(=O)Nc2ccc(N3CCOCC3)cc2)n1,inactive,–
C/C=C/c1ccc(OCC(=O)Nc2ccncc2)c(OC)c1,"inconclusive: 20.6 µM [cytotoxic, single point]",–
C[C@H](NC(=O)c1ccccc1)C(=O)OCC(=O)Nc1ccc(Cl)cn1,inactive,–
Cc1cc(C)c(NC(=O)Cn2nnc(-c3nc(-c4ccccc4)no3)c2N)c(C)c1,inactive,–
COc1cc(CCC(=O)Nc2sccc2C#N)cc(OC)c1OC,"inconclusive: 29.1 µM [rising, single point]",–
Cc1cc(C)c(C(=O)COc2cccnc2[N+](=O)[O-])cc1C,"inconclusive: 29.1 µM [cytotoxic, single point]",–
Cc1ccc(-c2oc3ccccc3c(=O)c2O)cc1,active: 20.6 µM,–
